PubChem BioAssay AID1671195, Yale University | 2021
Aim: 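Regulators of LDL receptor activity judged by labelled LDL uptake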 (primary screen). Cell system: human Huh7 hepatoma cells. Reagents: siRNA pool against human genes, 18 nM. Time to read-out: about 2 to 2.5 days of knockdown, then 8 h LDL uptake. Challenge: DiI-labelled LDL at 30 µg/ml for 8 h, in lipoprotein-deficient serum medium. Measured: 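Per-cell DiI-LDL intensity by automated imaging; well means scaled to the plate median and given as a robust z-score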. Scale: robust z-score: higher = more LDL uptake after knockdown. Hit rule: 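a gene counts as active if at least two replicate z-scores exceed ±2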.
The deposit covers about 22,000 reagents; this is a random part of them. About 1,510 of all reagents (6.9%) were called active. 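Active includes knockdowns raising or lowering LDL uptake; positive z-scores mean more uptake, negative mean less.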 A number with no mark means an inactive call.

Target gene | robust z-score, replicate 1 | robust z-score, replicate 2 | robust z-score, replicate 3
LRP2 (LDL receptor related protein 2) | -1.05 | -0.979 | -1.31
PPME1 (protein phosphatase methylesterase 1) | 1.58 | 1.36 | 1.67
NHERF4 (NHERF family PDZ scaffold protein 4) | -1.24 | -1.16 | -0.844
LCP1 (lymphocyte cytosolic protein 1) | 2.03 | 1.03 | 1.48
KAT7 (lysine acetyltransferase 7) | 1.89 | 0.85 | 3.44
LOC401499 (retired record) | -0.207 | -0.644 | -0.375
TBC1D4 (TBC1 domain family member 4) | -1.14 | 0.599 | 0.801
LIMD2 (LIM domain containing 2) | -0.219 | 0.0588 | -0.448
ANKRD36C (ankyrin repeat domain 36C) | -0.289 | -0.573 | -0.359
STX10 (syntaxin 10) | -0.571 | -0.259 | -0.43
IL2RB (interleukin 2 receptor subunit beta) | -0.736 | -1.26 | -0.882
IGF2BP1 (insulin like growth factor 2 mRNA binding protein 1) | 1.56 | 0.172 | 0.25
LOC102723968 | -1.14 | -1.12 | -0.727
IQSEC2 (IQ motif and Sec7 domain ArfGEF 2) | -0.801 | 0.225 | -0.293
CIRSR (corepressor of RBPJ and splicing regulator) | -0.575 | -1.16 | -1.17
LOC442220 (retired record) | 0.197 | 0.264 | -0.138
NEFL (neurofilament light chain) | -0.551 | 0.105 | 1.21
DMXL2 (Dmx like 2) | 0.17 | -0.688 | -0.419
NAP1L4 (nucleosome assembly protein 1 like 4) | -0.813 | -0.805 | -0.59
LOC389934 (retired record) | 1.63 | 1.35 | 0.571
SPINK5 (serine peptidase inhibitor Kazal type 5) | -0.875 | -0.802 | -0.7
VMA12 (vacuolar ATPase assembly factor VMA12) | 0.737 | 1.49 | 1.06
ABCG5 (ATP binding cassette subfamily G member 5) | 4.31 (active) | 4.62 | 2.32
MTRR | -0.426 | -0.768 | -0.927
IRF5 (interferon regulatory factor 5) | 0.259 | 2.02 | 0.804
TMEM88 (transmembrane protein 88) | 1.81 | 0.0573 | 0.343
TBCK (TBC1 domain containing kinase) | -1.46 (active) | -2.19 | -2.26
SERTAD4BP (SERTA domain containing 4B, pseudogene) | -0.0903 | -1.07 | -1.51
